## Screening data, single-dose tests

Sequences of proteins named here, by UniProt entry; tags and fusion partners are left off. Residues count along the entry.
UniProt P9WPC5, whole entry: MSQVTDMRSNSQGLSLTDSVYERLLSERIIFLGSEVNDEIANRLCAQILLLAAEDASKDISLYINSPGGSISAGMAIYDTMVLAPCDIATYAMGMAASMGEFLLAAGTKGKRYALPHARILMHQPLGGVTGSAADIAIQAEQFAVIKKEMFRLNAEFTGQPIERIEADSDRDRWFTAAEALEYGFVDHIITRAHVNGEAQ
UniProt P9WPC3, whole entry partner: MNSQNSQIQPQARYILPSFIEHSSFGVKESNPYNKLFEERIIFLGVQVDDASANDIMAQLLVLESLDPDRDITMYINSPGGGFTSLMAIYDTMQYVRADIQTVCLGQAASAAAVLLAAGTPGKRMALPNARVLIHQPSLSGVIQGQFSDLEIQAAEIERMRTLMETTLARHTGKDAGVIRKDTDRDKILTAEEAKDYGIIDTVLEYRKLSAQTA
UniProt P9WNZ1, whole entry: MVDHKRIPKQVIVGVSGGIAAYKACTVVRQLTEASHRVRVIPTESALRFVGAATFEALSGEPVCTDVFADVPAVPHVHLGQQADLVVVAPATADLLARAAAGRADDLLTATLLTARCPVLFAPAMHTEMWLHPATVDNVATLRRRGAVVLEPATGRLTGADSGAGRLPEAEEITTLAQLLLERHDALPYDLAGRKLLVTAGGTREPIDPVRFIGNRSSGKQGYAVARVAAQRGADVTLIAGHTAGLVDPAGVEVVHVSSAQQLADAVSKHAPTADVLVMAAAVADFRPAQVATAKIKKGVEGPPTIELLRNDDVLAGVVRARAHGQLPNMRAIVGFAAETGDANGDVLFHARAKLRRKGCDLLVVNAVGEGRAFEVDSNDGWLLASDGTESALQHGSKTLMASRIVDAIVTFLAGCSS
UniProt Q8IDJ8, 1-583: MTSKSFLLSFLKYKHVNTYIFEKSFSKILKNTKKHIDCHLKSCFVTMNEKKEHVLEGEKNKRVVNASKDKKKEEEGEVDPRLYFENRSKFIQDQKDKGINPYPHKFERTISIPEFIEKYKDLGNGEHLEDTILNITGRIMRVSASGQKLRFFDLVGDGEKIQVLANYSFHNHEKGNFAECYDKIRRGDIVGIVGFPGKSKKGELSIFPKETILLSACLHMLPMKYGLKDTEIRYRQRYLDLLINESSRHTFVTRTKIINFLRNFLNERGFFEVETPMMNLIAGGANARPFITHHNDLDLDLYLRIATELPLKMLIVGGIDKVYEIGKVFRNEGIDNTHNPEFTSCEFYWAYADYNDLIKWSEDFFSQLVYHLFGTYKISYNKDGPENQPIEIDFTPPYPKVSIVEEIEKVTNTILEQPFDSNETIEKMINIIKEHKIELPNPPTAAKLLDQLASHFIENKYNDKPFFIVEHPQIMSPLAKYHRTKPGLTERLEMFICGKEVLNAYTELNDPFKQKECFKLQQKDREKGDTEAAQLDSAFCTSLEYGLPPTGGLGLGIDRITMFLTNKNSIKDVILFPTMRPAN

The values are deposited in ChEMBL (CHEMBL3988442, “University of Dundee, Small-Polar-MMV Screening Library” (2021)).

The filed quantity is “Percent Effect” (%).
The controls that fix the scale are not given in the record; negative values are as filed.
Compounds were drawn at random from those tested, without regard to their results.
Two or more numbers in one place are separate tests of the same structure; such repeats can differ widely.
A dash means the value is not listed here; it may have been measured.

ClpP1P2: 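ClpP1P2, Mycobacterium tuberculosis (UniProt P9WPC5 and UniProt P9WPC3). Protease assay of ClpP1P2, read by the AMC dye that it sets free. Compounds at 50 µM. Higher reads as stronger inhibition, judged from the few compounds that gave an IC50. Most other retested compounds had strongly negative values. Size under these conditions: about 69,000 compounds, about 10 of them at 50% or above in at least one test.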
CoaBC: 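Coenzyme A biosynthesis protein CoaBC, Mycobacterium tuberculosis (UniProt P9WNZ1). Enzyme assay of CoaBC with a phosphate dye (Biomol Green) read at 650 nm. Concentration: 30 µM. Higher reads as stronger inhibition, judged from the few compounds that gave an IC50. Most strong results did not repeat in a second test. About 67,000 compounds were tested under these conditions; 0.06% (about 40) showed 50% or more at least once.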
PfKRS1: 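Enzyme assay of the cytosolic lysyl-tRNA synthetase in 384-well plates, read by luminescence. Target: Lysine-tRNA ligase, Plasmodium falciparum 3D7 (UniProt Q8IDJ8). Compounds at 30 µM. Higher reads as stronger inhibition, judged from the few compounds that gave an IC50. Size under these conditions: about 69,000 compounds, about 49 of them at 50% or above in at least one test.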
Leishmania in macrophages: 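Cell assay of Leishmania donovani living inside macrophages; the read-out is not stated. Tested at 30 µM. Direction is inferred from retests: higher values go with stronger inhibition. Of about 69,000 compounds tested this way, about 1,000 (1.5%) reached 50% or more in at least one test.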

compound: CCN(C)C(C(=O)Nc1ccc2c(c1)CCC(=O)N2)c1ccccc1 (configuration not stated)
ClpP1P2: 8.63
CoaBC: 4.839
PfKRS1: 6.591
Leishmania in macrophages: 22.33

compound: [H][C@@]12COC[C@]1(COCc1cccnc1)CN(C(=O)c1ncccn1)C2
Leishmania in macrophages: -9.074 and 3.917

compound: COCC1(C(=O)N[C@H]2CN(c3noc(C)n3)C[C@@H]2C2CC2)CCC1
ClpP1P2: -6.977
CoaBC: 7.753
PfKRS1: 8.957
Leishmania in macrophages: 11.11

compound: CC(=O)NC[C@H]1COCc2nc3cc(S(C)(=O)=O)ccc3n21
ClpP1P2: -2.129
CoaBC: -2.87
PfKRS1: 2.446
Leishmania in macrophages: -9.075

compound: Cc1c(C2CCCN(C(=O)C3CC3)C2)n2c(nc1=O)CCC2.Cl (configuration not stated)
Leishmania in macrophages: -13.64

compound: Cc1noc(C)c1CN1CCc2cnn(C)c2C1COCC1CC1 (configuration not stated)
ClpP1P2: 2.305
CoaBC: 3.333
PfKRS1: 5.413

compound: Cc1cc(C)n(-c2ccc(N3CCC4(CC3)OCC(C)O4)nc2)n1 (configuration not stated)
ClpP1P2: 11.3
CoaBC: 2.008
PfKRS1: -4.566
Leishmania in macrophages: 8.001

compound: Cn1cnc(S(=O)(=O)N2CCCCc3ccccc32)c1
ClpP1P2: 2.003
CoaBC: -1.789
PfKRS1: 3.98
Leishmania in macrophages: 26.61

compound: CCc1n[nH]c(C2CN(CCCS(C)(=O)=O)CCO2)n1 (configuration not stated)
ClpP1P2: 32.48
CoaBC: 2.926
PfKRS1: -3.438
Leishmania in macrophages: -10.23

compound: CC(C)(C)NS(=O)(=O)c1cc(NC(=O)C2CC2)ccc1F
ClpP1P2: -3.099
CoaBC: -10.08
PfKRS1: 0.02266
Leishmania in macrophages: 4.918

compound: COCCCNC(=O)N1CCC(CNC(=O)c2cnn(C)c2)CC1
ClpP1P2: -11
CoaBC: 4.845
PfKRS1: -0.4821
Leishmania in macrophages: -6.359

compound: Cc1ccc(Cl)c(CN2CCN(C)C(C(=O)O)C2)c1F (configuration not stated)
ClpP1P2: -10.49
CoaBC: 1.488
PfKRS1: -0.7132
Leishmania in macrophages: -13.45

compound: Cc1cc(CN(C)C2CCCN(Cc3noc(C4CC4)n3)C2)on1 (configuration not stated)
ClpP1P2: 13.68
CoaBC: 3.781
PfKRS1: 1.508
Leishmania in macrophages: -1.891

compound: Cn1c(CN2CCC(OCc3cccnc3)CC2)cc2ccccc21
ClpP1P2: -7.372
CoaBC: 3.069
PfKRS1: 5.222
Leishmania in macrophages: 26.13

compound: CN(Cc1nc2ccccc2o1)CC1CCCN1c1cccnn1 (configuration not stated)
ClpP1P2: 0.3337
CoaBC: -4.104
PfKRS1: 1.244
Leishmania in macrophages: 15.19

compound: CCCNC(=O)NC(=O)CN1CCN(Cc2nccn2CC)CC1
ClpP1P2: -9.565
CoaBC: 1.023
PfKRS1: -1.935
Leishmania in macrophages: 15.37

compound: [H][C@@]12CN(C(=O)c3ccncc3)C[C@]1([H])OCCN2CCN1CCCC1
Leishmania in macrophages: -28.22

compound: COc1cccc(O[C@H]2CCN(c3nc(C)cc(C)n3)CC[C@@H]2O)c1
ClpP1P2: 9.249
CoaBC: 8.232
PfKRS1: 0.4819
Leishmania in macrophages: -35.99

compound: O=C(c1cnn2ccccc12)N1CCCC(OCc2ccccn2)C1 (configuration not stated)
ClpP1P2: 7.332
CoaBC: -2.45
PfKRS1: 3.253
Leishmania in macrophages: -3.559

compound: CC(=O)N1CCCN(C(=O)Nc2ccccc2N2CCOC2=O)CC1
ClpP1P2: 2.146
CoaBC: 4.321
PfKRS1: 5.57
Leishmania in macrophages: 38.3

compound: O=C(O)C(F)(F)F.[H][C@]12CN(Cc3ccc(C)cc3)C[C@@]1([H])S(=O)(=O)CC[C@@H]2C(=O)N1CCCC1
Leishmania in macrophages: 13.78

compound: COCCN1C[C@@H]2CN(c3ncc(F)cn3)C[C@@H]2C1=O
ClpP1P2: 6.831
CoaBC: 3.969
PfKRS1: 4.206

compound: O=C(O)[C@@H]1CN(C(=O)c2ccc3[nH]nnc3c2)C[C@H]1c1ccccc1
ClpP1P2: -0.441
CoaBC: 6.947
PfKRS1: -0.01147
Leishmania in macrophages: 36.03

compound: CCCc1ccc(S(=O)(=O)NC(=O)CCc2cscn2)cc1
ClpP1P2: -4.086
CoaBC: -7.922
PfKRS1: 3.541
Leishmania in macrophages: 37.56

compound: NC(=O)COc1ccc(CNCc2ccc(F)cc2)cc1
ClpP1P2: -13.31
CoaBC: 2.806
PfKRS1: 2.46

compound: Cc1ccccc1-n1nc(C)c(CN(C)C(C)Cc2ccccn2)c1C.O=C(O)CC(O)(CC(=O)O)C(=O)O (configuration not stated)
Leishmania in macrophages: 17.55

compound: O=C(CCc1cccc(C2CCNCC2)n1)N1CCCCC1
ClpP1P2: -15.72
CoaBC: 4.988
PfKRS1: 2.528

compound: O=C(Cc1ccon1)N1CCN(c2ccncc2Cl)CC1
ClpP1P2: -0.04344
CoaBC: 1.556
PfKRS1: 5.711
Leishmania in macrophages: 7.058

compound: Cc1cccc(OC2CCN(c3ccc(C#N)cn3)CC2)n1
ClpP1P2: -11.91
CoaBC: 3.178
PfKRS1: -1.005
Leishmania in macrophages: 32.54

The last 4 entries again:

| compound | ClpP1P2 | CoaBC | PfKRS1 | Leishmania in macrophages |
|---|---|---|---|---|
| `Cc1ccccc1-n1nc(C)c(CN(C)C(C)Cc2ccccn2)c1C.O=C(O)CC(O)(CC(=O)O)C(=O)O` (configuration not stated) | - | - | - | 17.55 |
| `O=C(CCc1cccc(C2CCNCC2)n1)N1CCCCC1` | -15.72 | 4.988 | 2.528 | - |
| `O=C(Cc1ccon1)N1CCN(c2ccncc2Cl)CC1` | -0.04344 | 1.556 | 5.711 | 7.058 |
| `Cc1cccc(OC2CCN(c3ccc(C#N)cn3)CC2)n1` | -11.91 | 3.178 | -1.005 | 32.54 |